Assay results as given in the supplement of paper PMC12819154, “High-throughput peptide-centric local stability assay extends protein–ligand identification to membrane proteins, tissues and bacteria” (Nature Structural & Molecular Biology, 2025).
This is one part of the list. Most values lie at the level of the controls, where differences are scatter.

Amino acid sequences for entries named in this document (tags omitted). A change or cut given only in a name is not applied to a line headed by its entry.
UniProt P48193, whole entry: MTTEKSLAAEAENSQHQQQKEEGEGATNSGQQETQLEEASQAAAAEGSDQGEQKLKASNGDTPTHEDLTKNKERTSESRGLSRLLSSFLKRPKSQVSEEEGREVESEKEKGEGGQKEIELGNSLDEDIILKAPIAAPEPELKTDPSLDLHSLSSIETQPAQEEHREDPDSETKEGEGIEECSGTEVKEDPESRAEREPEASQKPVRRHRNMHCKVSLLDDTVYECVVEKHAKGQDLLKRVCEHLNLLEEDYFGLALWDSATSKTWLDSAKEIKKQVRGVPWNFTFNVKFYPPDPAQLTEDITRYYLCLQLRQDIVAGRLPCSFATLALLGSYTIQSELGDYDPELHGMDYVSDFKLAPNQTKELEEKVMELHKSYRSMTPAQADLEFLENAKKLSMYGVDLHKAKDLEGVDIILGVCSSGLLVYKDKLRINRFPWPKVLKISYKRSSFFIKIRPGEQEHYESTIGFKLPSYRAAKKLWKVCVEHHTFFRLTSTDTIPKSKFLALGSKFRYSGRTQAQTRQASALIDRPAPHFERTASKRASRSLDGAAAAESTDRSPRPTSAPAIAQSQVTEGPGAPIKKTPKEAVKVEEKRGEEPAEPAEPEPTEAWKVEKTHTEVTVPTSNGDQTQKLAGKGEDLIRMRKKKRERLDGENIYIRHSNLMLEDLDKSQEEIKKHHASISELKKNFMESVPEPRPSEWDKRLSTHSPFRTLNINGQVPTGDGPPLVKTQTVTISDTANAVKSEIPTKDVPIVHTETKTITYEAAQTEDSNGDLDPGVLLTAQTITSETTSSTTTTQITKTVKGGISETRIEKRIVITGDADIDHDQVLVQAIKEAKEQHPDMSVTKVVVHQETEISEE
UniProt P52431: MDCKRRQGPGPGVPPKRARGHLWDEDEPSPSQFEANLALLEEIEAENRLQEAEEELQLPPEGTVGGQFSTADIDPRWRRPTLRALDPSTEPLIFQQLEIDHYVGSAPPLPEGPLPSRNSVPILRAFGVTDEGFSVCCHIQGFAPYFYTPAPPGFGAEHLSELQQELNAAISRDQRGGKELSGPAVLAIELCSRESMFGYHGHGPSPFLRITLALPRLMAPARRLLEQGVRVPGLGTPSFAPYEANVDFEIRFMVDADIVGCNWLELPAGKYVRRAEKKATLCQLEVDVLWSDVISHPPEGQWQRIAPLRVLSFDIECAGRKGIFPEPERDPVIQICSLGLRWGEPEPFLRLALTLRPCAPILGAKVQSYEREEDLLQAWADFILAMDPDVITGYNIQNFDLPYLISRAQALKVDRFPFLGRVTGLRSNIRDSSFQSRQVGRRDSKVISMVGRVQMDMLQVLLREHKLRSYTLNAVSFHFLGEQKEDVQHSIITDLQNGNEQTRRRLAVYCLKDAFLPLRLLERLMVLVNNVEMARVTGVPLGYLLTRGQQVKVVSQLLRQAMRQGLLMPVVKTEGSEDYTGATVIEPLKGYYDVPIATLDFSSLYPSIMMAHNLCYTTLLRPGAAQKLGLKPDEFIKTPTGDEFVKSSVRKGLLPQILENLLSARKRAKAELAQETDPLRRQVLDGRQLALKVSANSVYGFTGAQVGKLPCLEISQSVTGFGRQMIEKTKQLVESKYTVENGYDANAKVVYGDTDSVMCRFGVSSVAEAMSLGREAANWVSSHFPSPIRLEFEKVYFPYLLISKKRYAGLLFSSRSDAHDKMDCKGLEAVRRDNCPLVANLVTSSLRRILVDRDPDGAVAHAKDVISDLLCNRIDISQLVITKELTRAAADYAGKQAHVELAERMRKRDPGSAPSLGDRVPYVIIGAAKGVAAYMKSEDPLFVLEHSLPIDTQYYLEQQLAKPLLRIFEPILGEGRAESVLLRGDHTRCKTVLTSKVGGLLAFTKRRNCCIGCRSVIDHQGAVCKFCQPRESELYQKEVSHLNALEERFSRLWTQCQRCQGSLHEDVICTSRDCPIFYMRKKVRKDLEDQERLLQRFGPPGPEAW
UniProt P51830: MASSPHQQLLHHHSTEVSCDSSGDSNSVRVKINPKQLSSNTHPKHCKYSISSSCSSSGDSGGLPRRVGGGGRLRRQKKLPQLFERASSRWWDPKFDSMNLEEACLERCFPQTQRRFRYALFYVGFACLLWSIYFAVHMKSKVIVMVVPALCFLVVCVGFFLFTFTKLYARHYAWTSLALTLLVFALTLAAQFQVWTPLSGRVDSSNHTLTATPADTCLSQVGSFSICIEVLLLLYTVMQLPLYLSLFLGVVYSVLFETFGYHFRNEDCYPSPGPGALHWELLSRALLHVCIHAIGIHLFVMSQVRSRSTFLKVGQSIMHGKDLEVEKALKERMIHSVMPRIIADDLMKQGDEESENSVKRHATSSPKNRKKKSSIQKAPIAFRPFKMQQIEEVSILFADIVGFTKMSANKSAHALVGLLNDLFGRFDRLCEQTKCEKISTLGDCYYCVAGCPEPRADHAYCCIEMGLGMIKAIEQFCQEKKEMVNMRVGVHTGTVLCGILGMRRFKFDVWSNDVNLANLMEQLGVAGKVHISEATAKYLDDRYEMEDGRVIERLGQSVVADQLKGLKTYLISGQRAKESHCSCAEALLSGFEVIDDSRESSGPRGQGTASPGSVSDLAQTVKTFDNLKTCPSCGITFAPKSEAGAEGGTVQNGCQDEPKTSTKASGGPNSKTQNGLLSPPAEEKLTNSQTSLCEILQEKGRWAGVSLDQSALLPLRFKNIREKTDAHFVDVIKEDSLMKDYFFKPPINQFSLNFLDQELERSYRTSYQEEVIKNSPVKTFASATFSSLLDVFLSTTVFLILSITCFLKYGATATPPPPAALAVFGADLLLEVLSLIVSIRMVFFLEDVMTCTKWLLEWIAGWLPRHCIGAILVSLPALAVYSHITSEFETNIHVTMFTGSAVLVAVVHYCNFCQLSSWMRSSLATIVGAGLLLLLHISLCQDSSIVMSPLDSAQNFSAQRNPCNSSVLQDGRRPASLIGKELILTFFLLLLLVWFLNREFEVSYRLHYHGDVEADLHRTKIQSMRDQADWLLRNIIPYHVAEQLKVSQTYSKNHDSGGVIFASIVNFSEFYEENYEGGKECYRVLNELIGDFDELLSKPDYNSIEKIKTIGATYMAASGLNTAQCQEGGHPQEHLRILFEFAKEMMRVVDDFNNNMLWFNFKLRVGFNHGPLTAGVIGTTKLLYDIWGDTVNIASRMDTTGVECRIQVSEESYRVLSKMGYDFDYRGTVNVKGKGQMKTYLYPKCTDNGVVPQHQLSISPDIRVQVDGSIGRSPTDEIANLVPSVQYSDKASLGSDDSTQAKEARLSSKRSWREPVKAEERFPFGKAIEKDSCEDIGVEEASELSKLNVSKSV
UniProt P35278: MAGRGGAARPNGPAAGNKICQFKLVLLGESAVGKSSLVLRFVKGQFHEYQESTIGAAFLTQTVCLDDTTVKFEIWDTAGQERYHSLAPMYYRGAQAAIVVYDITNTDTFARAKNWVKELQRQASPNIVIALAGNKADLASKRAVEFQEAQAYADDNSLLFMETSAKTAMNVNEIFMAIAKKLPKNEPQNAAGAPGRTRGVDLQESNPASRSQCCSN
UniProt P53657: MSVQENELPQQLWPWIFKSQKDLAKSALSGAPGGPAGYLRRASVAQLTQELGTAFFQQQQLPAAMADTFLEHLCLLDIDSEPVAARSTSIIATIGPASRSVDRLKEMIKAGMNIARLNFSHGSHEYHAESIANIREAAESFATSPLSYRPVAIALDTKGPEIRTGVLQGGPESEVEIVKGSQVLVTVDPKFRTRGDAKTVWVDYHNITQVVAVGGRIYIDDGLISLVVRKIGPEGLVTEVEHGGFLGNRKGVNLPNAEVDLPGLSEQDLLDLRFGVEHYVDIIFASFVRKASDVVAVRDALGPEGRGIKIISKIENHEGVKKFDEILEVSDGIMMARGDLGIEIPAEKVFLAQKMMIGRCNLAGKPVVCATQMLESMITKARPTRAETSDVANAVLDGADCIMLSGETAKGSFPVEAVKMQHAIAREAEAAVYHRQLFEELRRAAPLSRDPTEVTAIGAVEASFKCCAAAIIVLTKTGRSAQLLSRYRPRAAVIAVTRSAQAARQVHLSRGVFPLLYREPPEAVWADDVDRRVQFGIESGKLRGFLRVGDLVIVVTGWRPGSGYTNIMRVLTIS
UniProt P52633: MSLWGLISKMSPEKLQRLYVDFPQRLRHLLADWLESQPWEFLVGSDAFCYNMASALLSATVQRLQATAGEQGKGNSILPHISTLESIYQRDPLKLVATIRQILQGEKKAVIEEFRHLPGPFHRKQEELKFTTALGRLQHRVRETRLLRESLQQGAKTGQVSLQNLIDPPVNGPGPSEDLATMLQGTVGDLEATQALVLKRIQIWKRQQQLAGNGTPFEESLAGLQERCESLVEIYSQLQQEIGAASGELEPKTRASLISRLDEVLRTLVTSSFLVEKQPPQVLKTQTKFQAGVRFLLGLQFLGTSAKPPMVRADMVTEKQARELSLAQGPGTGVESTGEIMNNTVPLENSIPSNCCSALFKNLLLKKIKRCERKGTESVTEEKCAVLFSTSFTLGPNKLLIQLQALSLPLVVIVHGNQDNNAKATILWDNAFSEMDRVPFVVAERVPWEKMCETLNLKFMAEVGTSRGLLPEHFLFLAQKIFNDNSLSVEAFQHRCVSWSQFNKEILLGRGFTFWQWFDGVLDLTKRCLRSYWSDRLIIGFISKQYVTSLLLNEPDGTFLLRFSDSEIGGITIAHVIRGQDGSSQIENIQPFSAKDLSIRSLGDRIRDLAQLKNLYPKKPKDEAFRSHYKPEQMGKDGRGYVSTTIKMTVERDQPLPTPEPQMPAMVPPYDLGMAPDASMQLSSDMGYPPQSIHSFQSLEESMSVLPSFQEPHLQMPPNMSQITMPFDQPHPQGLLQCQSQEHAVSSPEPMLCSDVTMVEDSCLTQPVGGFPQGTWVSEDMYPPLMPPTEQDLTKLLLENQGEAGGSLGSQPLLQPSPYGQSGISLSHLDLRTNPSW
UniProt P50580: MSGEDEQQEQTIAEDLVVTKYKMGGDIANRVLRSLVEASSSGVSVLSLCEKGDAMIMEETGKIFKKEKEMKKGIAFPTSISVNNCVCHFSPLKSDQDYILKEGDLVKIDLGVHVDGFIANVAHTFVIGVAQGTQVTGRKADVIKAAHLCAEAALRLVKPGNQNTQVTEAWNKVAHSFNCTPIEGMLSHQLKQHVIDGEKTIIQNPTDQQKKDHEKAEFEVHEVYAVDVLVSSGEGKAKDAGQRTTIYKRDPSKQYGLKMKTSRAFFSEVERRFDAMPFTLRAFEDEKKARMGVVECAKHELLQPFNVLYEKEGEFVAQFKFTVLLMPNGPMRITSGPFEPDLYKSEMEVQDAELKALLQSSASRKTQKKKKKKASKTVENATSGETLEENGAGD
UniProt P37913: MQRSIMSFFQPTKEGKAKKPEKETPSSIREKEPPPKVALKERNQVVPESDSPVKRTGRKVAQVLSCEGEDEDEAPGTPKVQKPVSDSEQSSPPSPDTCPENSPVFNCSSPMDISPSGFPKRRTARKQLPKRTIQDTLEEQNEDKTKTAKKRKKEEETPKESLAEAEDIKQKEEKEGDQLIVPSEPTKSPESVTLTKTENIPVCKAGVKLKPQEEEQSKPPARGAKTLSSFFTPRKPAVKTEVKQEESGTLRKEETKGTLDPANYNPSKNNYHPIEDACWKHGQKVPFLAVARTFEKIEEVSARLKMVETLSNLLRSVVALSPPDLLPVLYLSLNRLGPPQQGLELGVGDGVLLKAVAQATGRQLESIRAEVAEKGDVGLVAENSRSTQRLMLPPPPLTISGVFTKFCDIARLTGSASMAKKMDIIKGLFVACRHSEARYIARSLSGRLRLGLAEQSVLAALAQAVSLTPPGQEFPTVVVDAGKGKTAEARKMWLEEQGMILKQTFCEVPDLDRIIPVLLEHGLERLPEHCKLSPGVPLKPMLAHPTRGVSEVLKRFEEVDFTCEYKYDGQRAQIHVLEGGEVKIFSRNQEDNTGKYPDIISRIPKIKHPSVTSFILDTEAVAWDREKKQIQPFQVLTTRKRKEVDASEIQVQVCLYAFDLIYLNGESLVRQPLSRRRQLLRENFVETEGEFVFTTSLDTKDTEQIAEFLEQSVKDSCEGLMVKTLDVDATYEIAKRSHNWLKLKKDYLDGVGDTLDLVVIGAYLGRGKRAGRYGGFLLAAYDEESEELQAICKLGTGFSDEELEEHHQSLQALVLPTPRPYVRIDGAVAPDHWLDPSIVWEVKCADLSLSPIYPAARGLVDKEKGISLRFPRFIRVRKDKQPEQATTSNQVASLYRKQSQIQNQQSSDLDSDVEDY
UniProt P42669: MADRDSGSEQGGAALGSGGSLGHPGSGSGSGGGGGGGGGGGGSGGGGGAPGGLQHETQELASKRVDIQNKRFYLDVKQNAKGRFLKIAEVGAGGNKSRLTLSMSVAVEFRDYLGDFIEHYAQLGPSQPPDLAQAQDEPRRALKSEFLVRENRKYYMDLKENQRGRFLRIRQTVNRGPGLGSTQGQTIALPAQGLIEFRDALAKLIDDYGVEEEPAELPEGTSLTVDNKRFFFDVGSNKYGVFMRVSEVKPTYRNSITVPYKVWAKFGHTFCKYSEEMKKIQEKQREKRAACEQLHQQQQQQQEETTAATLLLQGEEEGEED

Compound: CN[C@@H]1C[C@H]2O[C@@](C)([C@@H]1OC)n1c3ccccc3c3c4c(c5c6ccccc6n2c5c31)C(=O)NC4 [staurosporine]
Assay: log2 fold change of pooled soluble protein (PISA), ligand vs vehicle (log2 ratio); higher = more thermally stabilized
Conditions: ligand concentration: 20 uM; assay format: PISA pool 52.9/55.5/58.6 C

Target | log2 fold change of pooled soluble protein
UniProt P46638 | -0.0224
UniProt P28843 | 0.00955
UniProt P48193 | -0.0196
UniProt P31650 | 0.0213
UniProt P31786 | -0.052
UniProt P56391 | -0.042
UniProt P52431 | 0.154
UniProt P51830 | -0.0844
UniProt P47878 | -0.271
UniProt P54731 | -0.0936
UniProt P56564 | 0.0975
UniProt P28661 | -0.00656
UniProt P35278 | -0.0559
UniProt P51863 | -0.0251
UniProt P32261 | 0.101
UniProt P52503 | 0.218
UniProt P45377 | 0.000474
UniProt P53657 | 0.105
UniProt P53811 | 0.0644

Target | log2 fold change of pooled soluble protein
UniProt P52633 | 0.0554
UniProt P49282 | 0.276
UniProt P50580 | 0.00326
UniProt P47915 | -0.242
UniProt P43276 | -0.00857
UniProt P37913 | -0.00444
UniProt P30415 | -0.28
UniProt P51410 | -0.288
UniProt P45952 | -0.0814
UniProt P51125 | 0.0591
UniProt P40237 | -0.123
UniProt P46664 | -0.139
UniProt P42669 | 0.0409
UniProt P35123 | 0.363
UniProt P47934 | -0.0153
UniProt P49817 | -0.521
UniProt P52840 | -0.196
UniProt P38647 | -0.0309

Two neighbouring entries already listed, quoted:
Target | log2 fold change of pooled soluble protein
UniProt P53811 | 0.0644
UniProt P52633 | 0.0554
